Measured values published in PMC8880919.
These are yes or no findings as the source states them, for the method shown. In cells and extracts the contact can be indirect. Some entries that bind do so weakly or less than the wild type.

The chains behind the UniProt entries cited, without tags or fusion partners.
UniProt Q9UUK2: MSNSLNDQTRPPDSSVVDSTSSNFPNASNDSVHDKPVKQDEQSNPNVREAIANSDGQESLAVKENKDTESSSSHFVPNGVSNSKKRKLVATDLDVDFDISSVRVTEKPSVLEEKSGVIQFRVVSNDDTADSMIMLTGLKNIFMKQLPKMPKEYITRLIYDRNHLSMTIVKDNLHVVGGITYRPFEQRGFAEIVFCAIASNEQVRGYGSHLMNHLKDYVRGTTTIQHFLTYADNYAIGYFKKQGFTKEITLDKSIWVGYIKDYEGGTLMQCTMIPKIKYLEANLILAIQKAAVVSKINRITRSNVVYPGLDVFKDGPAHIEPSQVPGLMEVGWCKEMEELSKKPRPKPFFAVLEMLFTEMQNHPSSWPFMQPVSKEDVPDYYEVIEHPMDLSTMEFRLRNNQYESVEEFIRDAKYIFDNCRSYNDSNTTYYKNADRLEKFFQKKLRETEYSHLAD
UniProt O94267: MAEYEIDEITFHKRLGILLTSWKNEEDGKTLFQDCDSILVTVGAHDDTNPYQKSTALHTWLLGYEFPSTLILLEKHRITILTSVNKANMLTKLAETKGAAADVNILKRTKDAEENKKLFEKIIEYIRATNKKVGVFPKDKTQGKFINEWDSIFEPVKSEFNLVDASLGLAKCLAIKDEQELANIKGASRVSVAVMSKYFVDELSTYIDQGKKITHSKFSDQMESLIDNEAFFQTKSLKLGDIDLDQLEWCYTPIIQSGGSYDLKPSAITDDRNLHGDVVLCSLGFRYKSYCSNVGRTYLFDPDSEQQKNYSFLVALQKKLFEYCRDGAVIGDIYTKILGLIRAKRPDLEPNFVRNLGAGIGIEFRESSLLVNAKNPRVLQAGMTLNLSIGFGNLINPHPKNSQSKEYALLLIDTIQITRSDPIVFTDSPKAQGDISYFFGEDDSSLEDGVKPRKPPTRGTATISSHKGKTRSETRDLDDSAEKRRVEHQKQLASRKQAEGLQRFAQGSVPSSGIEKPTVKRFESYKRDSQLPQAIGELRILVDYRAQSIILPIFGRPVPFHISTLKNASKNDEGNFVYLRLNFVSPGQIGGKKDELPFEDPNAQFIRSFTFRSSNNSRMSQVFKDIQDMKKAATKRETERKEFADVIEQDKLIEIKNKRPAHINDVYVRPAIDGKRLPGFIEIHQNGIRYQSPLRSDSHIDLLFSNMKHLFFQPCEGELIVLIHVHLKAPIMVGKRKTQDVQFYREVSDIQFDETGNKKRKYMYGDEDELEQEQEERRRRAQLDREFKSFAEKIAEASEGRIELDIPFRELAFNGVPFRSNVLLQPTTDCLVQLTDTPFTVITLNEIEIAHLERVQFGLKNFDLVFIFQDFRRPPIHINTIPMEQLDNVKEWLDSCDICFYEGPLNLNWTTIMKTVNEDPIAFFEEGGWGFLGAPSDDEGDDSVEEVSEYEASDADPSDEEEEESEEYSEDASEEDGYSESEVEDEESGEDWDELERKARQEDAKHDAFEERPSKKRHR

Columns and labels:
Test in all cases: co-IP; protein extracts of wild type S. pombe cells expressing chromosomally tagged proteins; 500 ug protein, IP with anti-MYC or anti-FLAG overnight at 4 C, protein A/G sepharose; lysis buffer PBS pH 7.0, 200 mM NaCl, 0.5 mM EGTA, 0.5 mM EDTA, 0.1% Triton X100; five washes at 220 mM NaCl; blots with anti-HA, anti-FLAG or anti-MYC
[1] = biological target: T1, Cdc73 (S. pombe) (UniProt Q9UUE7)
T1 sequence: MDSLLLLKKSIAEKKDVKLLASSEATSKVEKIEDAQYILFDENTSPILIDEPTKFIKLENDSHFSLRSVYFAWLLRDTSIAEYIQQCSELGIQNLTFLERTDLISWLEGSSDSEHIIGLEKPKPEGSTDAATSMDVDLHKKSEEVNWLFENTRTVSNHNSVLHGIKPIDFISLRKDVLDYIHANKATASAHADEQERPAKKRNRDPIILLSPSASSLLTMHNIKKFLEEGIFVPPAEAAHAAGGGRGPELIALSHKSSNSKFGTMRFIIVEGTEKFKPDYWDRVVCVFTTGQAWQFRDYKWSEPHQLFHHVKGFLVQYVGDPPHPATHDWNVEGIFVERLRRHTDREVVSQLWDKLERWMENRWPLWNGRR

[2] = biological target: Gcn5 (S. pombe) (UniProt Q9UUK2)
[3] = biological target: T2, Med1 (S. pombe) (UniProt Q09696)
T2 sequence: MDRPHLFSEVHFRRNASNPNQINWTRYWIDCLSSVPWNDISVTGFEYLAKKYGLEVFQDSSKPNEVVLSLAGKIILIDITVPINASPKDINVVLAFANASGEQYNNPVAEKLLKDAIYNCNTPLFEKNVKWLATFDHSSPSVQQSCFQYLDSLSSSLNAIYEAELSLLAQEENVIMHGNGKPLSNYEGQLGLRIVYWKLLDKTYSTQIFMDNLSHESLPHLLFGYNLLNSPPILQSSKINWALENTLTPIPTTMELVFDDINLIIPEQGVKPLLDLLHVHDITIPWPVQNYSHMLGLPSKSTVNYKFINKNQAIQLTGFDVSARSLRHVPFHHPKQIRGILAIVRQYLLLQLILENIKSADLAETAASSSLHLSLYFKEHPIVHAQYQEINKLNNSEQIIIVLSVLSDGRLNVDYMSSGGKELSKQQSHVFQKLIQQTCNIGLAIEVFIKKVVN

[4] = biological target: T3, Mst1 (S. pombe) (UniProt O94446)
T3 sequence: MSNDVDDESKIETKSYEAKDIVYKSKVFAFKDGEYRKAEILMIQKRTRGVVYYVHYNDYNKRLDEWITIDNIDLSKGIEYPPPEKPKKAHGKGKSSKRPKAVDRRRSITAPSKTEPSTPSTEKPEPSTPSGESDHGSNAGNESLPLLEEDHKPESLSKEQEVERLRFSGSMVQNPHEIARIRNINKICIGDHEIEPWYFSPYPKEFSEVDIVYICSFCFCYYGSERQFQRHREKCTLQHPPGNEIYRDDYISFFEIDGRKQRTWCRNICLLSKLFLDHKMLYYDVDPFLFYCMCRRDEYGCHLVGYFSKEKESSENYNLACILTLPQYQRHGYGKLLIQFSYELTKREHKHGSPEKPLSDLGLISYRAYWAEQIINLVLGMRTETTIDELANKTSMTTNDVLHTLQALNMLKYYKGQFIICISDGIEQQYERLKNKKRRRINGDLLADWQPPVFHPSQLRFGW

[5] = biological target: Spt16 (S. pombe) (UniProt O94267)

B1: Gad8 (protein, UniProt Q9P7J8 1-569)
chain: MSWKLTKKLKETHLASAIGLNSGGSSFTRGLKNSTLSSTSSRKSSDEKSRKSSEDKRSPQSTVVQPGLLQVTIIEARNLKLPSGHVPANYGVSIDNSLLAPPLSNGSGHARSRSHAWWLPYIVVEFDKNEILVDALNTASLENPCWDYQATFDVSRYSKLSLNIYLRSSSSRSRNGMGNDAFLGGIKLSPSFIVNKLTDEWVPLHGGSGELRVQMLYKPNQSTPLTIDAFELLKVVGKGSFGKVMQVRKRDTSRIYALKTMKKAHIVSRSEVDHTLAERTVLAQVNNPFIVPLKFSFQSPGKLYLVLAFVNGGELFHHLQREGCFDTYRAKFYIAELLVALECLHEFNVIYRDLKPENILLDYTGHIALCDFGLCKLNMAKTDRTNTFCGTPEYLAPELLLGHGYTKVVDWWTLGVLLYEMITGLPPFYDENINEMYRKILQDPLRFPDNIDEKAKDLLSGLLTRAPEKRLGSGGAQEIKNHPFFDDIDWKKLCAKKIQPPFKPSVESAIDTSNFDSEFTSEIPMDSVVADSHLSETVQQRFANWSYQRPTTIDTSDDINTIAPGSVIR
With B1 the binding [1] was “no binding”, the binding [2] was “binds” and the binding [3] was “binds”. The binding [4] was “binds” and the binding [5] was “binds”.
